Some of the results follow. The main result of the screen is listed elsewhere. These columns were measured beside it and carry no call. Compounds called inactive in the main read-out are mostly missing here. Potencies come from curve fits of mixed quality, noted in brackets.
Experiment: qHTS Assay for Lipid Storage Modulators in Drosophila S3 Cells;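 as to cell number change: cells counted by Cell Tracker Red CMTPX staining in the red channel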
Conditions: BODIPY lipid droplet fluorescence, 18-24 h; for cell number change: measured here: cell count max response, cells fed with added oleic acid
In short: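 Laser-scanning cytometry quantifies lipid droplet accumulation (500–530 nm total intensity; droplet/cell object ratio) in oleic acid-fed (400 uM added) Drosophila S3 cells treated with a concentration series. 20 uM Triacsin C defined 100% inhibition.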

[1] = measured here: cell number channel AC50, cells fed with added oleic acid
[2] = measured here: lipid fluorescence (Fed channel) AC50, cells fed with added oleic acid

| Structure (SMILES) | cell number change [%] | AC50 [1] | AC50 [2] |
| --- | --- | --- | --- |
| CNc1ccc(C(=O)OCC(=O)NCc2ccc3c(c2)OCO3)cc1[N+](=O)[O-] | 43.8 | 20.6 µM [rising, single point] | 0.146 µM [rising, full curve, poor fit] |
| O=c1c2c3c(sc2nc2n1CCC2)CCC3 | -14.3 | – | 0.13 µM [falling, full curve, poor fit] |
| CN1CCN(C(=O)CCCN2C(=O)/C(=C/c3ccc(Cl)cc3)SC2=S)CC1 | -28.5 | – | 1.46 µM [falling, full curve] |
| CCN(CC)C(=O)N1CCc2ccccc21 | 112 | – | – |
| Cc1ccc(-n2[nH]c(C)c(/C=N/c3ccccn3)c2=O)cc1 | 37 | 6.51 µM [rising, full curve, poor fit] | – |
| O=C(Nc1ccc(Cl)cc1)C1CCN(C(=O)c2cccs2)CC1 | 18.9 | – | 0.206 µM [rising, single point] |
| COC(=O)c1cc(C#N)c(OC)nc1C | 8.96 | – | – |
| CCOc1ccc(S(=O)(=O)Nc2ccccc2C(=O)N2CCOCC2)cc1 | -9.21 | – | 35.5 µM [rising, single point] |
| O=C(Nc1ccc2nc(SCc3ccc(Cl)cc3)sc2c1)c1ccccc1C(=O)N1CCOCC1 | 9.51 | – | 20.6 µM [rising, partial curve] |
| COc1cc([N+](=O)[O-])cc([N+](=O)[O-])c1NC(=O)N1CCOCC1 | -0.833 | – | 8.2 µM [falling, single point] |
| COc1ccc(C2C(C(N)=O)=C(C)Nc3nc(-c4ccccc4OC)nn32)cc1OC (configuration not stated) | 18.4 | – | 16.4 µM [rising, single point] |
| CC1CC(C)CN(C(=O)C2CCN(S(=O)(=O)c3ccc4c(c3)CC(C)N4C(=O)C3CC3)CC2)C1 (configuration not stated) | -8.57 | – | 16.4 µM [falling, partial curve] |
| COc1ccc(O)c(C(=O)c2cc(C#N)c(=O)n(CC3CCCO3)c2)c1 (configuration not stated) | 20.2 | – | 0.0651 µM [rising, full curve, poor fit] |
| CC(=O)c1ccc(OCC(O)CN2CCN(S(=O)(=O)c3cccc(Br)c3)CC2)cc1 (configuration not stated) | -9.52 | – | 29.1 µM [falling, single point] |
| CC(=O)CCC(=O)NCCc1ccccc1F | -15.2 | – | 1.3 µM [falling, full curve, poor fit] |
| CCCn1c2c(c(O)c(C(=O)Nc3nc(C)cs3)c1=O)CCCC2 | -0.0678 | – | – |
| C#CCOCCOCCOCCNc1nc(N2CCN(C(=O)CCCCCCCCCCNC(=O)[C@H]([C@@H](C)CC)n3cc(CCCCCN)nn3)CC2)nc(N2CCN(C(=O)CCCCCCCCCCNC(=O)[C@H]([C@@H](C)CC)n3cc(CCCCN=C(N)N)nn3)CC2)n1 | -86.8 | 13 µM [falling, partial curve] | 29.1 µM [falling, single point] |
| COc1cc(NC(=O)c2cccc(C)c2)c(Cl)cc1[N+](=O)[O-] | -69.9 | 29.1 µM [falling, single point] | 23.1 µM [falling, partial curve] |
| CCOC(=O)/C(C(C)=O)=C1/OC(=O)c2ccccc21 | -47.4 | 0.231 µM [falling, full curve] | 20.6 µM [falling, partial curve] |
| Cc1nnc(SCC(=O)NCc2ccco2)n1-c1ccccc1 | -63.4 | 16.4 µM [falling, partial curve] | – |

| Structure (SMILES) | cell number change [%] | AC50 [1] | AC50 [2] |
| --- | --- | --- | --- |
| CCOC(=O)C1(CC)NC(c2ccco2)C2C(=O)N(c3ccc(C)cc3)C(=O)C21 (configuration not stated) | -1.69 | – | – |
| CC(=O)NC(=S)Nc1ccc(-c2nc3ccc(C)cc3s2)cc1 | -27.6 | – | 20.6 µM [falling, single point] |
| Cc1csc(NC(=O)c2c(-c3ccccc3)noc2C)n1 | -22.4 | – | 3.55 µM [rising, partial curve, poor fit] |
| CC(C)N1C(=O)NC2(c3ccccc3)N(C)C(=O)N(C)C12c1ccccc1 (configuration not stated) | -2.41 | – | 1.3 µM [falling, full curve, poor fit] |
| COc1ccc(/C=C/C(=O)Nc2ccc(C(N)=O)cc2)cc1OC | 55.7 | 29.1 µM [rising, single point] | – |
| CCC(CC)C(=O)NCc1ccc(OC)cc1 | -48.7 | 29.1 µM [falling, single point] | – |
| CCN(CC)S(=O)(=O)c1ccc(C(=O)NCC2(N3CCOCC3)CCCCC2)cc1 | -9.08 | – | 1.3 µM [falling, full curve, poor fit] |
| O=C(N/N=C/c1ccc(OC2CSC2)cc1)c1ccccc1 | -17 | – | 0.461 µM [rising, single point] |
| CCS(=O)(=O)N1CCC(NC(=O)c2cc(OC)cc(OC)c2)CC1 | 20.7 | – | 29.1 µM [falling, single point] |
| CC1(C)Cc2ccccc2C(CSc2ccccc2C(=O)O)=N1 | -30.7 | 32.6 µM [falling, single point] | 32.6 µM [falling, single point] |
| CCC(C(=O)NCc1ccncc1)c1ccccc1 (configuration not stated) | 5.4 | – | 0.366 µM [falling, full curve, poor fit] |
| Cc1cccc(C(=O)C2CCN(S(=O)(=O)c3ccc(C(=O)O)cc3)CC2)c1 | 6.41 | – | – |
| CCOC(=O)C(CC)(CCC(=O)O)c1csc(Nc2ccc(C)cc2)n1 (configuration not stated) | 12.4 | – | 13 µM [rising, partial curve, poor fit] |
| CCOc1ccccc1N1CCN(C(=O)C2c3ccccc3Oc3ccccc32)CC1 | 10.5 | – | – |
| COc1ccc(NCc2nn(CC(=O)c3ccc(Br)cc3)c3[n+]2CCCCC3)cc1 | 1.45 | 1.16 µM [rising, full curve, poor fit] | – |
| CCOc1ccccc1NC(=O)CSc1nnc(CNC(=O)c2ccco2)o1 | 36.9 | 20.6 µM [rising, partial curve, poor fit] | – |
| CC(C)OCCCn1c(=O)c2ccccc2n2c(CCC(=O)N3CCN(c4ccccn4)CC3)nnc12 | – | – | 2.91 µM [falling, partial curve] |
| COc1ccc(N(C(=O)c2ccco2)C(C(=O)NC2CCCC2)c2ccccc2)cc1 (configuration not stated) | 5.26 | – | 12.6 µM [falling, single point] |
| COc1ccc(OC)c(NC(=O)CC2C(=O)NCCN2C(=O)c2ccccc2)c1 (configuration not stated) | 37.8 | 0.00461 µM [rising, full curve, poor fit] | 0.206 µM [falling, single point] |
| COc1ccc(N=Nc2cc(C)ccc2O)cc1 | -49.2 | 14.6 µM [falling, partial curve, poor fit] | 14.6 µM [falling, partial curve, poor fit] |

| Structure (SMILES) | cell number change [%] | AC50 [1] | AC50 [2] |
| --- | --- | --- | --- |
| COc1ccccc1NCCC(=O)OCC(=O)NC1CCCC(C)C1C (configuration not stated) | -11.2 | – | 13 µM [falling, partial curve, poor fit] |
| CN(CC(=O)NCC(=O)Nc1ccc(F)cc1)C1CCS(=O)(=O)C1 (configuration not stated) | 11.4 | – | 23.1 µM [rising, single point] |
| Cc1ccc(NC(=O)CCC(=O)OCc2ccc(Br)cc2)cc1 | -52.6 | 29.1 µM [falling, single point] | 29.1 µM [falling, partial curve, poor fit] |
| Nc1c(C(=O)N2CCOCC2)sc(=S)n1-c1ccccc1 | -31 | 5.17 µM [falling, single point] | 29.1 µM [falling, single point] |
| COc1ccc(-c2c(C(=O)O)c(C(=O)O)c3n2CCC3)cc1 | -20.9 | – | 29.1 µM [falling, single point] |
| Cc1ccc(CNC(=O)C2CCN(S(=O)(=O)c3cccnc3)CC2)cc1 | 12.2 | – | 29.1 µM [rising, single point] |
| Clc1ccccc1Nc1nc2ccccc2o1 | -0.916 | – | – |
| CCCCNc1ccc(S(=O)(=O)c2cccc([N+](=O)[O-])c2)cc1[N+](=O)[O-] | -2.22 | – | 14.6 µM [rising, partial curve, poor fit] |
| COc1cc(C2Nc3ccc4ncccc4c3C3=C2C(=O)CCC3)cc(OC)c1O (configuration not stated) | -23.5 | – | 9.2 µM [rising, partial curve, poor fit] |
| O=C(Cc1ccc(Cl)cc1)Nc1ccc(S(=O)(=O)N2CCOCC2)cc1 | -20.8 | 0.0651 µM [falling, full curve, poor fit] | 29.1 µM [rising, single point] |
| COc1cccc(S(=O)(=O)NCc2ccc(C(=O)NCc3ccccn3)cc2)c1 | -13.3 | – | 29.1 µM [falling, single point] |
| CCOC(=O)COc1ccc(CCNC(C)=O)cc1 | -9.92 | – | 0.92 µM [falling, full curve] |
| COCCNC(=O)CN(c1ccc(OC)c(OC)c1)S(=O)(=O)c1ccc(C)cc1 | -2.87 | – | 6.51 µM [falling, single point] |
| c1ccc(-c2nn[nH]n2)nc1 | 23.9 | – | 1.16 µM [falling, full curve, poor fit] |
| O=C(CSc1ccc(-c2ccco2)nn1)Nc1ccc(F)cc1 | – | – | 20.6 µM [rising, single point] |
| CN(C)CCN(CC1CCCN(Cc2ccccc2F)C1)C(=O)c1ccc(F)cc1 (configuration not stated) | 9.34 | – | 23.1 µM [rising, single point] |
| O=C(CCN=C1NS(=O)(=O)c2ccccc21)Nc1ccc(Cl)cc1F | 9.49 | – | 0.517 µM [falling, single point] |
| CC(=O)N1CCC2(CC1)C(C#N)=C(N)Oc1n[nH]c(CSc3ccc(C)cc3)c12 | -9.93 | – | 0.82 µM [falling, single point] |

Random excerpt: three records from the list

| Structure (SMILES) | cell number change [%] | AC50 [1] | AC50 [2] |
| --- | --- | --- | --- |
| CCOC(=O)COc1ccc(CCNC(C)=O)cc1 | -9.92 | – | 0.92 µM [falling, full curve] |
| CN1CCN(C(=O)CCCN2C(=O)/C(=C/c3ccc(Cl)cc3)SC2=S)CC1 | -28.5 | – | 1.46 µM [falling, full curve] |
| Cc1nnc(SCC(=O)NCc2ccco2)n1-c1ccccc1 | -63.4 | 16.4 µM [falling, partial curve] | – |

From PubChem BioAssay AID2685 (National Center for Advancing Translational Sciences (NCATS), 2010)
